In PubChem BioAssay AID1671190 (National Center for Advancing Translational Sciences (NCATS), 2021):
Out of some 580,000 compounds screened, about 6,100 (1.1%) were called active. The inconclusive results got no clear call from the source; some entries with a clear call stand among them for comparison. Calls follow the shape of the dose curve; as a rule, active = well fitted inhibition curve with a large enough effect; inconclusive = small, poorly fitted or top-dose-only effect, or another doubt; inactive = no such curve, though single readings can be large or run the other way. A potency beside an inconclusive call is a rough fit, not a confirmed value.

Amino acid sequences for entries named in this document (tags omitted).
UniProt P18054, whole entry, looked up: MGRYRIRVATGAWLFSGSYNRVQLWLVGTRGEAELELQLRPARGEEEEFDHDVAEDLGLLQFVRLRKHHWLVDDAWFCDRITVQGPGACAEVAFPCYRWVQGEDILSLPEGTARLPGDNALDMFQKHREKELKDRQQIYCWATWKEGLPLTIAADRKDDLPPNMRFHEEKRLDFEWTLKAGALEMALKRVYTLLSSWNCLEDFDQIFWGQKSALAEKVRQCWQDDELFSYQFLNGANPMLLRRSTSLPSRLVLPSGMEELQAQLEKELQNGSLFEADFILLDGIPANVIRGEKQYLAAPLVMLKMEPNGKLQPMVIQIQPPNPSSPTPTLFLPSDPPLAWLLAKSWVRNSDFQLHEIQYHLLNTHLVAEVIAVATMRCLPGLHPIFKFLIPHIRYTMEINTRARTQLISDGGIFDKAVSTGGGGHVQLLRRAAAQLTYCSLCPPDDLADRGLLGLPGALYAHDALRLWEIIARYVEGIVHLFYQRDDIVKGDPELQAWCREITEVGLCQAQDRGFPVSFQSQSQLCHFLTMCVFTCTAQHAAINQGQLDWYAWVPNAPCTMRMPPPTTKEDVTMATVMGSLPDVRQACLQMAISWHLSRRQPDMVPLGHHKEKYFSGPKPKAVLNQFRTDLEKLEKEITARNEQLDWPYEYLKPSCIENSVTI

Target: Polyunsaturated fatty acid lipoxygenase ALOX12 (Homo sapiens) (UniProt P18054)
Assay: Primary qHTS assay for inhibitors of human arachidonate 12S-lipoxygenase (ALOX12): Round 2
Conditions: purified 12hLO, xylenol orange hydroperoxide absorbance; activity change, negative = inhibition: at 108 µM (top of the series) unless noted
In short: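 Hydroperoxide product was detected by ferrous iron/xylenol orange as the 573 to 405 nm absorbance ratio. Arachidonic acid at 40 uM (final) was turned over for 30 min at room temperature by 150 nM human 12hLO, pH 7.0 Hepes buffer, after 15 min compound preincubation.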
% is scaled to controls: 0 for no effect and ±100 for the full control effect; potency is read from the fitted curve at half-maximal effect.

Row | SMILES | Potency | activity change, negative = inhibition
1 | O=C(NC1CCCCC1)N1CCCC1c1nnc2n1CCNC2 (configuration not stated) | inconclusive: 4.46 µM [inhibitor, single point] | 
2 | COc1cc(CCCN2C(=S)NC[C@@H]2CC2CCCCC2)cc(OC)c1OC | inconclusive: 50.1 µM [inhibitor, partial curve, poor fit] | 
3 | CCNC(=S)NCC | inconclusive: 112 µM [inhibitor, single point] | 
4 | Cc1ccc(N=Nc2ccc(O)c3ncccc23)cc1C | inconclusive: 5.01 µM [inhibitor, full curve] | 
5 | Cn1c(-c2ccccc2)cc(=O)cc1-c1ccccc1 |  | inactive: 2.14%
6 | COc1ccc(/C=C/c2nc(C#N)c(N3CCN(C(C)=O)CC3)o2)cc1 | inconclusive: 112 µM [inhibitor, single point] | 
7 | Cc1c(C(=O)NC(=S)Nc2cccnc2)cccc1[N+](=O)[O-] | inconclusive: 56.2 µM [inhibitor, partial curve, poor fit] | 
8 | C=CCn1c(SCC(=O)c2ccc(O)c(O)c2)nnc1-c1ccc(C)cc1 | inconclusive: 12.6 µM [inhibitor, full curve] | 
9 | O=C(NCc1ccc(F)cc1)N(Cc1ccc(Cl)c(Cl)c1)Cc1ccccn1 |  | inactive: -1.97%
10 | Cc1ccccc1-c1nc(-c2ccc(NC(=O)c3cccs3)cc2)no1 |  | inactive: 20%
11 | CN(C)c1ccc(/C=N/NC(=O)C(O)(c2ccccc2)c2ccccc2)o1 | inconclusive: 31.6 µM [inhibitor, partial curve, poor fit] | 
12 | COc1cccc(CNC(=O)[C@@H]2CCCN2C(=O)[C@@H]2CCCN2C(=O)c2cccc3ccccc23)c1 | inconclusive: 79.4 µM [inhibitor, partial curve, poor fit] | 
13 | CCc1ccc(NC(=O)c2ccc(CN3C(=O)NC4(CCOCC4)C3=O)cc2)cc1 | inconclusive: 8.91 µM [inhibitor, full curve] | 
14 | Cc1cccc(NC(=O)c2ccc(COc3ccc4ccccc4c3)o2)n1 |  | inactive: -16%
15 | Cn1cc(C[C@H](NC(=O)OC(C)(C)C)C(=O)N[C@H](CO)Cc2ccccc2)c2ccccc21 | inconclusive: 112 µM [inhibitor, single point] | 
16 | CCN(c1ccccc1)S(=O)(=O)c1ccc(OC)c(NC(=O)C2CC(=O)N(Cc3ccccc3)C2)c1 (configuration not stated) |  | inactive: -17.4%
17 | COc1ccccc1CNC(=O)CCc1nnc2ccc(NCc3ccc4c(c3)OCO4)nn12 |  | inactive: 0.326%
18 | C=CCNc1nc(C(=O)OCC(=O)c2cc(C)n(C)c2C)cs1 | inconclusive: 17.8 µM [inhibitor, full curve] | 
19 | CCc1ccc2c(c1)-c1ccccc1S(=O)(=O)N2CC(=O)Nc1c(C)cccc1C | inconclusive: 2.82 µM [inhibitor, full curve, poor fit] | 
20 | C#CCOCCOCCOCCNc1nc(N2CCOCC2)nc(N2CCN(C(=O)[C@H](Cc3ccc(O)cc3)n3cc([C@@H](N)CC(C)C)nn3)CC2)n1 | inconclusive: 100 µM [inhibitor, single point] | 
21 | Cc1ccc(-c2nc(Cl)nc3ccccc23)cc1 | inconclusive: 0.794 µM [inhibitor, full curve] | 
22 | COc1ccc(CCNC(=S)Nc2ccc(F)cc2)cc1 | inconclusive: 44.7 µM [inhibitor, partial curve, poor fit] | 
23 | CSc1ccc(N/C=C/C(=O)c2ccc(C)c(C)c2)cc1 |  | inactive: -28.1%
24 | CCOc1ccc(N2CC(C(=O)Nc3ccc(S(=O)(=O)N4CCOCC4)cc3)CC2=O)cc1 (configuration not stated) |  | inactive: -5.8%

Row | SMILES | Potency | activity change, negative = inhibition
25 | CCC1CN(Cc2nc(CCOC)no2)CCC(=O)N1Cc1ccccc1 (configuration not stated) | inconclusive: 7.94 µM [inhibitor, full curve, poor fit] | 
26 | CCN1CCN(c2ccc(S(=O)(=O)N3CCCCC3)cc2NC(=O)CC(NC(C)=O)c2ccccc2)CC1 (configuration not stated) | inconclusive: 25.1 µM [inhibitor, partial curve, poor fit] | 
27 | Cc1c(Cl)cccc1NC(=O)N1CCN(C2=Nc3ccccc3Oc3ccccc32)CC1 |  | inactive: 7.69%
28 | Cc1cc(F)ccc1NC(=O)CN1C(=O)NC2(CCC(C(C)(C)C)CC2)C1=O (configuration not stated) | inconclusive: 44.7 µM [inhibitor, partial curve] | 
29 | Cc1ccc(C)c(N=Nc2ccc(O)c3ncccc23)c1 | inconclusive: 39.8 µM [inhibitor, partial curve] | 
30 | O=C(O)COCC(=O)N[C@H]1CCN2C(=O)c3ccc(Cl)cc3NC(=O)[C@H]12 |  | inactive: -22.1% [at 176 µM]
31 | CSc1nsc(SC)c1NC(=O)OCc1ccccc1 |  | inactive: -16.1%
32 | Cc1nnc2ccc(-c3ccc(NC(=O)c4ccco4)cc3)nn12 |  | inactive: 2.67%
33 | CC(C)NC(=O)NC(=O)COc1ncnc2sccc12 |  | inactive: -14.9%
34 | O=C(NC1CCCCC1)c1ccc2c(c1)N(Cc1ccc(F)cc1)C(=O)c1ccccc1S2(=O)=O |  | inactive: -9.97%
35 | CCN1C(=O)[C@@H]2[C@@H](c3ccc(-c4cccc(Cl)c4)cc3)N3CCC[C@@]3(C(=O)OC)[C@@H]2C1=O | inconclusive: 50.1 µM [inhibitor, partial curve, poor fit] | 
36 | COc1cccc(CNC(=O)Cn2c(=O)cc(C)c3c(C)nn(C)c32)c1OC |  | inactive: -16.1%
37 | O=C(Nc1ccc(Cl)cc1Cl)c1ccc2ncsc2c1 | inconclusive: 50.1 µM [inhibitor, partial curve, poor fit] | 
38 | Cn1cnc(S(=O)(=O)N2CC(N(C3CCOCC3)S(C)(=O)=O)C2)c1 |  | inactive: 22.8%
39 | O=C(CSc1nnnn1-c1ccc(F)cc1)c1ccc(O)c(O)c1 | active: 14.1 µM | 
40 | O=c1[nH]c(=S)[nH]cc1Oc1ccc(Br)cc1Br | active: 11.2 µM | 
41 | Oc1ccc(C(=S)N2CCN(Cc3ccccc3)CC2)cc1 |  | inactive: -9.95%
42 | CCCCCCc1nnc(NC(=O)OCC)s1 |  | inactive: -20.9%
43 | CCCCCC1CCC(c2ccc(-c3ccc(CC)cn3)cc2)CC1C (configuration not stated) |  | inactive: 40.5%
44 | COC(=O)c1[nH]c2ccc(F)cc2c1NC(=O)c1ccccc1F | inconclusive: 100 µM [inhibitor, single point] | 
45 | COc1cccc(CCNc2ncnc3sc(C(=O)N4CCOCC4)c(C)c23)c1 | inconclusive: 141 µM [inhibitor, single point] | 
46 | CCCN(CCC)Cc1c(C(=O)N/N=C/C(C)=C\c2ccco2)nnn1-c1nonc1N | inconclusive: 11.2 µM [inhibitor, partial curve, poor fit] | 
47 | O=C(Cn1nc2n(c1=O)-c1ccccc1SC2)N/N=C/c1cccnc1 |  | inactive: 10.2%
48 | c1ccc2[nH]c(CN3CCCCCC3)nc2c1 |  | inactive: 18.4%

Row | SMILES | Potency | activity change, negative = inhibition
49 | COc1cc(S(=O)(=O)Nc2ccccc2C)ccc1Cl | inconclusive: 50.1 µM [inhibitor, partial curve, poor fit] | 
50 | O=C1CCNc2c(Cl)cccc21 | inconclusive: 39.8 µM [inhibitor, partial curve, poor fit] | 
51 | COc1ccccc1-c1cc2nc(NCc3cccc(Cl)c3)ccn2n1 | inconclusive: 50.1 µM [inhibitor, partial curve, poor fit] | 
52 | CCN1c2cc(C(=O)Nc3cc(OC)ccc3OC)ccc2C(=O)N2CCCCCC21 (configuration not stated) | inconclusive: 79.4 µM [inhibitor, single point] | 
53 | CC12CCC(C(=O)n3c1nc1ccccc13)C2(C)C (configuration not stated) |  | inactive: 1.1%
54 | O=C(Nc1ccccc1)C1=C(O)CC(c2ccco2)CC1=Nc1ccccc1 (configuration not stated) | inconclusive: 158 µM [inhibitor, single point] | 
55 | S=c1[nH]nc(Nc2cccc(Cl)c2)s1 | inconclusive: 44.7 µM [inhibitor, partial curve, poor fit] | 
56 | CCN(Cc1nc2ccccc2c(=O)[nH]1)C(=O)Cc1csc(-c2c(Cl)cccc2Cl)n1 | inconclusive: 35.5 µM [inhibitor, partial curve] | 
57 | CCCNC(=O)Nc1ccccc1CC(N)=O |  | inactive: 59.2%
58 | CN(C)CCNC(=O)c1cccc2ccc(-c3ccc(-c4ccccc4)cc3)nc12 | active: 39.8 µM | 
59 | Cc1ccccc1CNc1nc(N)n(-c2ccccc2)n1 | inconclusive: 5.01 µM [inhibitor, full curve, poor fit] | 
60 | COc1ccc(-c2sc3ccc(N4CCOCC4)cc3c2C#CC2(O)CCCCC2)cc1 |  | inactive: -14.6%
61 | Cc1nonc1CN1CCN(C(C(=O)O)c2c[nH]c3cc(Cl)ccc23)CC1 (configuration not stated) | inconclusive: 89.1 µM [inhibitor, partial curve, poor fit] | 
62 | O=C(CCc1cc(Cl)no1)Nc1ccc2oc(-c3ccccc3F)cc(=O)c2c1 | inconclusive: 100 µM [inhibitor, single point] | 
63 | COc1cccc(NC(=O)c2cnc(SCC(=O)NCc3ccc4c(c3)OCO4)n(C)c2=O)c1 |  | inactive: -5.16%
64 | COC(=O)c1ccc(C2/C(=C(\O)c3ccc(OC)c(C)c3)C(=O)C(=O)N2c2cc(C)on2)cc1 (configuration not stated) | inconclusive: 11.2 µM [inhibitor, full curve, poor fit] | 
65 | CC(C)NC(=O)c1cccc2c1CCCN2CC(=O)NCCc1ccccc1 |  | inactive: -6.04%
66 | COC(=O)c1ccc(CSc2nc3ccccc3c(=O)n2Cc2ccco2)o1 |  | inactive: -2.43%
67 | O=C(c1cc(-c2ccco2)on1)N1CCc2ccccc2C1 | active: 17.8 µM | 
68 | Cc1nnc(SCC(=O)Nc2sc3c(c2C#N)CCC(C)C3)n1Cc1ccccc1 (configuration not stated) | active: 20 µM | 
69 | COc1ccccc1CNC(=O)COC(=O)c1cc(-c2ccco2)nc2ccccc12 | inconclusive: 3.55 µM [inhibitor, full curve, poor fit] | 
70 | O=C(c1cscn1)N1CC[C@@H]2[C@@H](CCC(=O)N2CCc2ccccn2)C1 |  | inactive: 30.1%
71 | Cc1ccccc1OCCC(=O)Nc1ccc(N2CCOCC2)cc1N1CCOCC1 |  | inactive: -15.3%
72 | CC(=O)c1ccc(NC(=S)NC(NC(=O)c2ccco2)C(Cl)(Cl)Cl)cc1 (configuration not stated) | inconclusive: 25.1 µM [inhibitor, single point] | 

Quoted from the listing:
`CSc1nsc(SC)c1NC(=O)OCc1ccccc1` | activity change, negative = inhibition: inactive: -16.1%
`CSc1ccc(N/C=C/C(=O)c2ccc(C)c(C)c2)cc1` | activity change, negative = inhibition: inactive: -28.1%
`CN(C)c1ccc(/C=N/NC(=O)C(O)(c2ccccc2)c2ccccc2)o1` | Potency: inconclusive: 31.6 µM [inhibitor, partial curve, poor fit]
`c1ccc2[nH]c(CN3CCCCCC3)nc2c1` | activity change, negative = inhibition: inactive: 18.4%
`O=C(Nc1ccccc1)C1=C(O)CC(c2ccco2)CC1=Nc1ccccc1` (configuration not stated) | Potency: inconclusive: 158 µM [inhibitor, single point]
`CCN1C(=O)[C@@H]2[C@@H](c3ccc(-c4cccc(Cl)c4)cc3)N3CCC[C@@]3(C(=O)OC)[C@@H]2C1=O` | Potency: inconclusive: 50.1 µM [inhibitor, partial curve, poor fit]
